The source of these data is PMC7476095.

Sequences of proteins named here, by UniProt entry; tags and fusion partners are left off.
UniProt P13010: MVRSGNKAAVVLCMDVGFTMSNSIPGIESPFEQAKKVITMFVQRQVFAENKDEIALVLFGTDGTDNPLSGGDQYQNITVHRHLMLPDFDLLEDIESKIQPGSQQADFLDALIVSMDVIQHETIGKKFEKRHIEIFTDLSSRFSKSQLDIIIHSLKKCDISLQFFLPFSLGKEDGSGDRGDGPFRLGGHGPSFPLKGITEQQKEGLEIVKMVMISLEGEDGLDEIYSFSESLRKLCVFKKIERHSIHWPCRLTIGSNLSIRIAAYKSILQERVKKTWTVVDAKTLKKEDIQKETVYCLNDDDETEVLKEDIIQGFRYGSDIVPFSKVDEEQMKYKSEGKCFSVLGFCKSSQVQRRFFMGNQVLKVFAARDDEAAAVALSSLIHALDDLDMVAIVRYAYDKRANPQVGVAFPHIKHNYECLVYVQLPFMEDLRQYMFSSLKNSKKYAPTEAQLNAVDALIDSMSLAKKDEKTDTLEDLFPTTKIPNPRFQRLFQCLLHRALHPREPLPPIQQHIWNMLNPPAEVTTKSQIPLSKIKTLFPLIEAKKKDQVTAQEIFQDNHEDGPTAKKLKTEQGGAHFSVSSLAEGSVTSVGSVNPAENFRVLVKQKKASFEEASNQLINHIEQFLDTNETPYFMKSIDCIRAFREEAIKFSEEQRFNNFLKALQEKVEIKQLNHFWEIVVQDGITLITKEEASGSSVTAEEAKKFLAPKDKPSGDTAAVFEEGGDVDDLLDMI

This assay has as its target T1, FLAG-tagged wild type MAD1 (mitotic arrest-deficient protein 1) (UniProt Q9Y6D9).
T1 sequence: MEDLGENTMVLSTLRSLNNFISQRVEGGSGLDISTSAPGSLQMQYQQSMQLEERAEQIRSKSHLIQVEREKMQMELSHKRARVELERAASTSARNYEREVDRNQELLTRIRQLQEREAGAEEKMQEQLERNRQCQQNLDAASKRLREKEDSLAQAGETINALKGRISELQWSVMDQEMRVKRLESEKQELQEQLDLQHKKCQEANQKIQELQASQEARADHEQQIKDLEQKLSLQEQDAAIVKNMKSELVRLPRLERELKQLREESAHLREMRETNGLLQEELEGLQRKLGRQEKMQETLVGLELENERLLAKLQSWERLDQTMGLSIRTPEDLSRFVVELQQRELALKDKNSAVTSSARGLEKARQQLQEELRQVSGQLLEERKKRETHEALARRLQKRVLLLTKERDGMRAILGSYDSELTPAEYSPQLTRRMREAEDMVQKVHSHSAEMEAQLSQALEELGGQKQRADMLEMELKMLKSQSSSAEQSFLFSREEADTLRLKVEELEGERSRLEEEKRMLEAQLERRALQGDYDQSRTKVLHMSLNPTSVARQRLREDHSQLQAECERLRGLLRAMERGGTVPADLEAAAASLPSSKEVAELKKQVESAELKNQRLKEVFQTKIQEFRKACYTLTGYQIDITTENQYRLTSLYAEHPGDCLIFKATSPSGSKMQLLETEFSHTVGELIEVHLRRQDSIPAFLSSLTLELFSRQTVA
As to the kind of experiment: affinity purification with mass spectrometry; FLAG immunoprecipitates from HeLa cells expressing FLAG-MAD1 (wild type or S214A), mock or IR; silver-stained gel bands that changed, in-gel trypsin digestion, LC-MS/MS; normal IgG control in parallel.

Results are given in words; binding and its absence hold for the method and conditions named. Binding seen in cells or lysates may run through a third protein. These calls come from enrichment with a bait or labelling near it, and not all partners need be listed. Sequences can lack the tags named with a protein.

Regarding KU80 (from UniProt P13010 1-732), the binding result was “binds”.
